Assay results as given in paper PMC10851605.
These are yes or no findings as the source states them, for the method shown. In cells and extracts the contact can be indirect. Some results given as binding are weak or reduced against the parent protein; the word gives no strength.

By UniProt entry, the sequences of proteins in these tests, tags left out.
UniProt P29350: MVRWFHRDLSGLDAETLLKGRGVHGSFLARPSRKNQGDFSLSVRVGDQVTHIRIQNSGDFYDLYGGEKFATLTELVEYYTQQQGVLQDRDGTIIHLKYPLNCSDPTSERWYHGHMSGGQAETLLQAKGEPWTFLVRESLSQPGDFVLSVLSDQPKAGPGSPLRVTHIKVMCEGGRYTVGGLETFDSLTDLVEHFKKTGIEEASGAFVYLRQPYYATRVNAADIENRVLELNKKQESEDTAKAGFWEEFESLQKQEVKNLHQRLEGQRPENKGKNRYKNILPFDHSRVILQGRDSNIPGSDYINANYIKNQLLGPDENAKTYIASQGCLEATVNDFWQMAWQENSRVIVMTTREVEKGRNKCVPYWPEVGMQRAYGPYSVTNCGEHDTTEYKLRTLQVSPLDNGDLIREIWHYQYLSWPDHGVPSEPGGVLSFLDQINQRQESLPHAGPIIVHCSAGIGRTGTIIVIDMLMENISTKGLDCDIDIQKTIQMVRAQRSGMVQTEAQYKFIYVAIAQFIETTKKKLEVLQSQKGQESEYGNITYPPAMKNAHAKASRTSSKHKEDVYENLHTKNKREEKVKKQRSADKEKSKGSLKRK
UniProt P14618: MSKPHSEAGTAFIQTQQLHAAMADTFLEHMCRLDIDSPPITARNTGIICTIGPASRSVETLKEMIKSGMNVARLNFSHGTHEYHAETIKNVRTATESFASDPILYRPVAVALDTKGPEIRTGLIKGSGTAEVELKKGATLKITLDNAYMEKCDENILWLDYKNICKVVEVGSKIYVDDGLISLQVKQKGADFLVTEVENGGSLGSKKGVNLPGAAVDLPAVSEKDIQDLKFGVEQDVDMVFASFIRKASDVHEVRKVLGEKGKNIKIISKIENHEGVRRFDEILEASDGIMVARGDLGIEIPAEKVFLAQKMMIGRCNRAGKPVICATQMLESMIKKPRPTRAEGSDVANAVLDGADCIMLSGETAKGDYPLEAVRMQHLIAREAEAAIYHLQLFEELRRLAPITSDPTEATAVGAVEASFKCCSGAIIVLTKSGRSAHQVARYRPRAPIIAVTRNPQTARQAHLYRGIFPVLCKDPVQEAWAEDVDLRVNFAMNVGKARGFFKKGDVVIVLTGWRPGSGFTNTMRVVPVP

Biological target: SHP1 (human (endogenous in Jurkat)) (UniProt P29350)
Experiment: co-IP; endogenous SHP1, PKM2 and LDHB each captured with its antibody on protein A/G agarose beads from Jurkat cell lysate, 4 °C overnight; detection by western blot; mouse IgG as control

binding: binds
Substance: pyruvate kinase M2 (PKM2) (from UniProt P14618 1-531) (enzyme)
